Assay results: patent publication US7585875B2, “Substituted pyrazolo[1,5-a]pyridine compounds and their methods of use” (Avigen, Inc., priority 2006, dated 2009)
Some entries share one result that the patent states for a list of compounds.

System: mechanical allodynia after chronic constriction injury (CCI) to the sciatic nerve
Experiment: Mechanical allodynia by response to von Frey fibers, rat chronic constriction injury (CCI) model
Assay type: in vivo, male Sprague-Dawley rats
Details: compounds listed as particularly advantageous
Text: Chronic Constriction Injury: Heat and cold allodynia responses as well as mechanical allodynia sensations can be evaluated as described below in rats having a chronic constriction injury (CCI). A unilateral mononeuropathy is produced in rats using the chronic constriction injury model described in Bennett et al., Pain (1988) 33:87-107. CCI is produced in anesthetized rats as follows. The lateral aspect of each rat's hind limb is shaved and scrubbed with Nolvasan. Using aseptic techniques, an incision is made on the lateral aspect of the hind limb at the mid-thigh level. The biceps femoris is bluntly dissected to expose the sciatic nerve. On the right hind limb of each rat, four loosely tied ligatures (for example, Chromic gut 4.0; Ethicon, Johnson and Johnson, Somerville, N.J.) are made around the sciatic nerve approximately 1-2 mm apart. On the left side of each rat, an identical dissection is performed except that the sciatic nerve is not ligated (sham). […]
To induce allodynia, male Sprague-Dawley rats underwent chronic constriction injury (CCI) to the sciatic nerve as described by Bennett and Xie, Pain 1988; 33(1):87-107. […] The bending force of fiber required to induce a 50% withdrawal response was calculated following CCI surgery (pre-dosing baseline). […] Two hours post-dosing, 50% paw withdrawal threshold was determined again by blinded testers using von Frey filaments. […]

Compound: CC(N)C(=O)c1c(C(C)C)nn2ccccc12 (stereo not shown) [compound 1013, 2-amino-1-(2-isopropylpyrazolo[1,5-a]pyridin-3-yl)propan-1-one]
- chronic constriction injury threshold: ≥ 1.0 gram
